Laboratory results as given in the supplement of paper PMC10077471.
The full ranking holds about 1,900 compounds; the median of “excess over highest single agent (ExcessHSA) synergy score, 6x6 matrix” is about -83, and the lowest 2% start at about -370. Some of the results follow.

These compounds were tested on NCI-H446 (assay: excess over highest single agent (ExcessHSA) synergy score, 6x6 matrix; higher = less synergy (more negative = stronger synergy)). Settings: 72 h; CellTiter-Glo viability.

Row | SMILES | excess over highest single agent
1 | Cc1ccc(NC(=O)c2ccc(CN3CCN(C)CC3)cc2)cc1Nc1nc(-c2cccnc2)cs1 + Cc1sc2c(c1C)C(c1ccc(Cl)cc1)=N[C@@H](CC(=O)OC(C)(C)C)c1nnc(C)n1-2 [NCGC00250412-19] | 130
2 | CCCC[C@@H](C=O)NC(=O)[C@H](CC(C)C)NC(=O)OCc1ccccc1 + Cc1sc2c(c1C)C(c1ccc(Cl)cc1)=N[C@@H](CC(=O)OC(C)(C)C)c1nnc(C)n1-2 [NCGC00250412-19] | -104
3 | Cc1ccc(S(=O)(=O)NC(=O)NN2CC3CCCC3C2)cc1 (centres undefined) + Cc1sc2c(c1C)C(c1ccc(Cl)cc1)=N[C@@H](CC(=O)OC(C)(C)C)c1nnc(C)n1-2 [NCGC00250412-19] | -35.8
4 | CCN(CC)CCOc1ccc(Cc2ccccc2)cc1 + Cc1sc2c(c1C)C(c1ccc(Cl)cc1)=N[C@@H](CC(=O)OC(C)(C)C)c1nnc(C)n1-2 [NCGC00250412-19] | -138
5 | O=c1c(O)c(-c2cc(O)c(O)c(O)c2)oc2cc(O)cc(O)c12 + Cc1sc2c(c1C)C(c1ccc(Cl)cc1)=N[C@@H](CC(=O)OC(C)(C)C)c1nnc(C)n1-2 [NCGC00250412-19] | -52.1
6 | CC(C)C[C@@H](C=O)NC(=O)[C@H](CC(C)C)NC(=O)[C@H](CC(C)C)NC(=O)OCc1ccccc1 + Cc1sc2c(c1C)C(c1ccc(Cl)cc1)=N[C@@H](CC(=O)OC(C)(C)C)c1nnc(C)n1-2 [NCGC00250412-19] | -203
7 | N=C(N)NC(=N)N1CCOCC1 + Cc1sc2c(c1C)C(c1ccc(Cl)cc1)=N[C@@H](CC(=O)OC(C)(C)C)c1nnc(C)n1-2 [NCGC00250412-19] | -1.59
8 | CCN(CC)Cc1ccc2cc(COC(=O)Nc3ccc(C(=O)NO)cc3)ccc2c1 + Cc1sc2c(c1C)C(c1ccc(Cl)cc1)=N[C@@H](CC(=O)OC(C)(C)C)c1nnc(C)n1-2 [NCGC00250412-19] | -214
9 | O=c1c(-c2ccc(O)cc2)coc2cc(O[C@@H]3O[C@H](CO)[C@@H](O)[C@H](O)[C@H]3O)cc(O)c12 + Cc1sc2c(c1C)C(c1ccc(Cl)cc1)=N[C@@H](CC(=O)OC(C)(C)C)c1nnc(C)n1-2 [NCGC00250412-19] | 22.1
10 | CCC[C@H](N[C@@H](C)C(=O)N1[C@H](C(=O)O)C[C@@H]2CCCC[C@@H]21)C(=O)OCC + Cc1sc2c(c1C)C(c1ccc(Cl)cc1)=N[C@@H](CC(=O)OC(C)(C)C)c1nnc(C)n1-2 [NCGC00250412-19] | -74.7
11 | Nc1ccn([C@@H]2CO[C@H](CO)O2)c(=O)n1 + Cc1sc2c(c1C)C(c1ccc(Cl)cc1)=N[C@@H](CC(=O)OC(C)(C)C)c1nnc(C)n1-2 [NCGC00250412-19] | -182
12 | CN(C)CCc1c[nH]c2ccc(Cn3cncn3)cc12 + Cc1sc2c(c1C)C(c1ccc(Cl)cc1)=N[C@@H](CC(=O)OC(C)(C)C)c1nnc(C)n1-2 [NCGC00250412-19] | 10.9
13 | O=C(c1ccc(C(=O)N2CCC(N3CCCC3)CC2)c(Nc2ccccc2)c1)N1CCC(N2CCCC2)CC1 + Cc1sc2c(c1C)C(c1ccc(Cl)cc1)=N[C@@H](CC(=O)OC(C)(C)C)c1nnc(C)n1-2 [NCGC00250412-19] | -240
14 | OC[C@H]1O[C@@H](Oc2ccc(O)cc2)[C@H](O)[C@@H](O)[C@@H]1O + Cc1sc2c(c1C)C(c1ccc(Cl)cc1)=N[C@@H](CC(=O)OC(C)(C)C)c1nnc(C)n1-2 [NCGC00250412-19] | 30.8
15 | CS(=O)(=O)c1cc(F)cc2c3c(n(Cc4ccc(Cl)cc4)c12)[C@@H](CC(=O)O)CC3 + Cc1sc2c(c1C)C(c1ccc(Cl)cc1)=N[C@@H](CC(=O)OC(C)(C)C)c1nnc(C)n1-2 [NCGC00250412-19] | -104
16 | CCNC(=O)C[C@H]1N=C(c2ccc(Cl)cc2)c2cc(OC)ccc2-n2c(C)nnc21 + Cc1sc2c(c1C)C(c1ccc(Cl)cc1)=N[C@@H](CC(=O)OC(C)(C)C)c1nnc(C)n1-2 [NCGC00250412-19] | 344
17 | CN(NC(=O)CC(=O)NN(C)C(=S)c1ccccc1)C(=S)c1ccccc1 + Cc1sc2c(c1C)C(c1ccc(Cl)cc1)=N[C@@H](CC(=O)OC(C)(C)C)c1nnc(C)n1-2 [NCGC00250412-19] | -166
18 | COc1cccc(OC)c1-c1cc(C(=O)NC2(C(=O)O)C3CC4CC(C3)CC2C4)nn1-c1ccnc2cc(Cl)ccc12 (centres undefined) + Cc1sc2c(c1C)C(c1ccc(Cl)cc1)=N[C@@H](CC(=O)OC(C)(C)C)c1nnc(C)n1-2 [NCGC00250412-19] | -56.6
19 | CO[C@@H]1[C@@H](OC(N)=O)[C@@H](O)[C@H](Oc2ccc3c(O)c(NC(=O)c4ccc(O)c(CC=C(C)C)c4)c(=O)oc3c2C)OC1(C)C + Cc1sc2c(c1C)C(c1ccc(Cl)cc1)=N[C@@H](CC(=O)OC(C)(C)C)c1nnc(C)n1-2 [NCGC00250412-19] | 165
20 | O=Nc1c(-c2c(O)[nH]c3cc(Br)ccc23)[nH]c2ccccc12 + Cc1sc2c(c1C)C(c1ccc(Cl)cc1)=N[C@@H](CC(=O)OC(C)(C)C)c1nnc(C)n1-2 [NCGC00250412-19] | 84.3
21 | NC(=O)N/N=C/c1ccc([N+](=O)[O-])o1 + Cc1sc2c(c1C)C(c1ccc(Cl)cc1)=N[C@@H](CC(=O)OC(C)(C)C)c1nnc(C)n1-2 [NCGC00250412-19] | -55.6
22 | CC(C)C[C@H](NC(=O)[C@H](CCc1ccccc1)NC(=O)CN1CCOCC1)C(=O)N[C@@H](Cc1ccccc1)C(=O)N[C@@H](CC(C)C)C(=O)[C@@]1(C)CO1 + Cc1sc2c(c1C)C(c1ccc(Cl)cc1)=N[C@@H](CC(=O)OC(C)(C)C)c1nnc(C)n1-2 [NCGC00250412-19] | -521
23 | COc1ccc(-n2c(C)c([N+](=O)[O-])c3ccc(O)cc32)cc1 + Cc1sc2c(c1C)C(c1ccc(Cl)cc1)=N[C@@H](CC(=O)OC(C)(C)C)c1nnc(C)n1-2 [NCGC00250412-19] | -14.3
24 | CN1CCCC(n2nc(Cc3ccc(Cl)cc3)c3ccccc3c2=O)CC1 (centres undefined) + Cc1sc2c(c1C)C(c1ccc(Cl)cc1)=N[C@@H](CC(=O)OC(C)(C)C)c1nnc(C)n1-2 [NCGC00250412-19] | -173

Given tab-delimited: part of the list above.
Row	SMILES	excess over highest single agent
23	COc1ccc(-n2c(C)c([N+](=O)[O-])c3ccc(O)cc32)cc1 + Cc1sc2c(c1C)C(c1ccc(Cl)cc1)=N[C@@H](CC(=O)OC(C)(C)C)c1nnc(C)n1-2 [NCGC00250412-19]	-14.3
24	CN1CCCC(n2nc(Cc3ccc(Cl)cc3)c3ccccc3c2=O)CC1 (centres undefined) + Cc1sc2c(c1C)C(c1ccc(Cl)cc1)=N[C@@H](CC(=O)OC(C)(C)C)c1nnc(C)n1-2 [NCGC00250412-19]	-173
